Laboratory results reported in publication PMC7915196.
Results are given in words; binding and its absence hold for the method and conditions named. Binding seen in cells or lysates may run through a third protein. Some entries that bind do so weakly or less than the wild type. Values belong to the binder of their own block, whether it stands above or below them.

Experiments:
[1] = target: T1, c-Jun (human (endogenous in KYSE150)), P05412; assay: co-IP; nuclear protein-enriched extracts of KYSE150 cells, untreated or treated with MLN4924 (1 µM, 24 h) or TNF-α (30 ng/mL, 1 h); rabbit anti-c-Jun antibody; Western blot; conditions: remark: other sources report otherwise
T1 chain: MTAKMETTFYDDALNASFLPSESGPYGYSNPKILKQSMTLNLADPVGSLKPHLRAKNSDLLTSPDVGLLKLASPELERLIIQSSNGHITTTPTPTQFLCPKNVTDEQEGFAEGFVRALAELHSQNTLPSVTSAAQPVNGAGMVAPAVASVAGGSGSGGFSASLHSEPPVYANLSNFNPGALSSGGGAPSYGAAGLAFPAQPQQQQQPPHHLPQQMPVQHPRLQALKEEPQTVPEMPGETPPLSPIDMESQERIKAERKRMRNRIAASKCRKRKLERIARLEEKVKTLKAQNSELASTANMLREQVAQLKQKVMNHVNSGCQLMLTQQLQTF

[2] = target: nuclear factor kappa B p65 subunit (NFκB/p65) (human (endogenous in KYSE150)), Q04206; assay: co-IP; nuclear extracts (500 µg/mL) of KYSE150 cells, untreated or treated with MLN4924 (1 µM, 24 h) or TNF-α (30 ng/mL, 1 h); anti-NFκB/p65 antibody overnight at 4 °C, Protein G magnetic beads, washed with 10 mM HEPES pH 7.6; Western blot; conditions: remark: other sources report otherwise

- binding [1]: binds
- binding [2]: binds
B1: inhibitor of nuclear factor kappa B-alpha (IκB-α), P25963 1-317 (protein)
chain: MFQAAERPQEWAMEGPRDGLKKERLLDDRHDSGLDSMKDEEYEQMVKELQEIRLEPQEVPRGSEPWKQQLTEDGDSFLHLAIIHEEKALTMEVIRQVKGDLAFLNFQNNLQQTPLHLAVITNQPEIAEALLGAGCDPELRDFRGNTPLHLACEQGCLASVGVLTQSCTTPHLHSILKATNYNGHTCLHLASIHGYLGIVELLVSLGADVNAQEPCNGRTALHLAVDLQNPDLVSLLLKCGADVNRVTYQGYSPYQLTWGRPSTRIQQQLGQLTLENLQMLPESEDEESYDTESEFTEFTEDELPYDDCVFGGQRLTL

- binding [2]: binds
B2: phospho-inhibitor of nuclear factor kappa B-alpha (phospho-IκB-α (Ser32)), P25963 1-317 (protein)
chain: B1 chain
modifications: here or on the partner: phosphoserine at 32
